Test: general procedure: solution-phase peptide synthesis; EDCI·HCl/HOBt·H2O/NMM

| Substance | cyclisation yield (cyclisation step, overall) [%] | final HPLC purity (whole synthesis) [%] | final HPLC purity (late stage modification step) [%] |
| --- | --- | --- | --- |
| (10S,13S,16R)-13-((adamantan-1-yl)methyl)-16-((S)-2-amino-3-phenylpropanamido)-2-imino-4,12,15-trioxo-1,3,5,11,14-pentaazacyclononadecane-10-carboxamide | 9 | 98.82 | – |
| (2S)-2-((2S)-3-(adamantan-1-yl)-2-((R)-2-((S)-2-amino-3-phenylpropanamido)-5-guanidinopentanamido)propanamido)-6-aminohexanamide | – | – | 99 |
